Experimental data as given in doi:10.1101/2021.05.26.443198.
These are yes or no findings as the source states them, for the method shown. Binding seen in cells or lysates may run through a third protein. Some entries that bind do so weakly or less than the wild type.

Columns and labels:
[1] = target: STAT3 (human (in human breast cancer cells)), P40763; assay: proximity ligation; conditions: remark: other sources report otherwise
[2] = target: STAT3 (human (in human breast cancer cells)), P40763; assay: co-IP; conditions: remark: other sources report otherwise

B1: LMO2, P25791 1-158 (protein)
chain: MSSAIERKSLDPSEEPVDEVLQIPPSLLTCGGCQQNIGDRYFLKAIDQYWHEDCLSCDLCGCRLGEVGRRLYYKLGRKLCRRDYLRLFGQDGLCASCDKRIRAYEMTMRVKDKVYHLECFKCAACQKHFCVGDRYLLINSDIVCEQDIYEWTKINGMI
For B1, the binding [1] was “binds” and the binding [2] was “binds”.
